Reference: PubChem BioAssay AID652272 (Drosophila RNAi Screening Center, 2013)
The deposit covers about 21,000 reagents; shown is a random part of those with a known target gene and a result. In the full data, 503 (2.4%) got an active call. 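Raw plate light values, not normalised; calls rest on replicate z-scores that were not deposited; hits include reporter decreases as well as increases.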 The numbers tell different reagents against one gene apart. Names joined by + are all predicted targets of the reagent. Not given: the amount of reagent, the time to read-out.

Purpose: 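Finding fly genes that regulate Hedgehog signal transduction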 (primary screen)
Cell system: Drosophila clone 8 (Cl8) cells
Reagents: long dsRNA against Drosophila genes
Read-out: 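Plate reader light from a firefly reporter under a ptc promoter fragment that responds to Hedgehog, with Renilla light as transfection reference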
Scale: firefly Hh reporter signal: higher = more ptc reporter light; Renilla reference signal: higher = more Renilla control light
Call rule: 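Hit when the z-score averaged over two replicates is under -2 or over +3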
Meaning of the calls: active = hit: reporter lowered or raised; inactive = not a hit

stnB + stnA #1 scored firefly Hh reporter signal, replicate 1 = 4.85e5; firefly Hh reporter signal, replicate 2 = 92576; Renilla reference signal, replicate 1 = 1810; Renilla reference signal, replicate 2 = 1810; inactive.
stnB + stnA #2 scored firefly Hh reporter signal, replicate 1 = 6.34e5; firefly Hh reporter signal, replicate 2 = 2.45e5; Renilla reference signal, replicate 1 = 33549; Renilla reference signal, replicate 2 = 5841; inactive.
Depletion of stnB + stnA #3 resulted in: firefly Hh reporter signal, replicate 1 = 64329; firefly Hh reporter signal, replicate 2 = 2.21e5; Renilla reference signal, replicate 1 = 1869; Renilla reference signal, replicate 2 = 8386; inactive.
Knock-down of CG8915 (GeneID 32715) came out at: firefly Hh reporter signal, replicate 1 = 1.24e5; firefly Hh reporter signal, replicate 2 = 87876; Renilla reference signal, replicate 1 = 2998; Renilla reference signal, replicate 2 = 2196; inactive.
Silencing of smal (GeneID 5740323) #1 came out at: firefly Hh reporter signal, replicate 1 = 2.00e5; firefly Hh reporter signal, replicate 2 = 5.11e5; firefly Hh reporter signal, replicate 3 = 72450; Renilla reference signal, replicate 1 = 4365; Renilla reference signal, replicate 2 = 29835; inactive.
With knock-down of smal (GeneID 5740323) #2 the results were firefly Hh reporter signal, replicate 1 = 1.05e5; firefly Hh reporter signal, replicate 2 = 43050; Renilla reference signal, replicate 1 = 2672; Renilla reference signal, replicate 2 = 5733; inactive.
Against smal (GeneID 5740323) #3, the entry reads firefly Hh reporter signal, replicate 1 = 1.22e5; firefly Hh reporter signal, replicate 2 = 61888; Renilla reference signal, replicate 1 = 3184; Renilla reference signal, replicate 2 = 5601; inactive.
smal (GeneID 5740323) #4 scored firefly Hh reporter signal, replicate 1 = 1.03e5; firefly Hh reporter signal, replicate 2 = 55506; Renilla reference signal, replicate 1 = 3223; Renilla reference signal, replicate 2 = 5592; inactive.
Silencing of Dlip3 (GeneID 53579) gave: firefly Hh reporter signal, replicate 1 = 1.31e5; firefly Hh reporter signal, replicate 2 = 47856; Renilla reference signal, replicate 1 = 3488; Renilla reference signal, replicate 2 = 3575; inactive.
For hfp (GeneID 38173) #1 the deposit lists firefly Hh reporter signal, replicate 1 = 59877; firefly Hh reporter signal, replicate 2 = 29573; Renilla reference signal, replicate 1 = 2400; Renilla reference signal, replicate 2 = 2988; inactive.
Against hfp (GeneID 38173) #2, the entry reads firefly Hh reporter signal, replicate 1 = 92011; firefly Hh reporter signal, replicate 2 = 36420; Renilla reference signal, replicate 1 = 2564; Renilla reference signal, replicate 2 = 2995; inactive.
For Zip48C (GeneID 36273), the values are firefly Hh reporter signal, replicate 1 = 84589; firefly Hh reporter signal, replicate 2 = 51509; Renilla reference signal, replicate 1 = 4038; Renilla reference signal, replicate 2 = 2369; inactive.
With knock-down of CG32214 (GeneID 317919), the record shows firefly Hh reporter signal, replicate 1 = 3.43e5; Renilla reference signal, replicate 1 = 7222; inactive.
Knock-down of CG12209 (GeneID 36077) gave: firefly Hh reporter signal, replicate 1 = 63228; firefly Hh reporter signal, replicate 2 = 36077; Renilla reference signal, replicate 1 = 1632; Renilla reference signal, replicate 2 = 3096; inactive.
Depletion of Cad86C (GeneID 41302) #1 gave: firefly Hh reporter signal, replicate 1 = 1.32e5; firefly Hh reporter signal, replicate 2 = 2.14e5; Renilla reference signal, replicate 1 = 3993; Renilla reference signal, replicate 2 = 6120; inactive.
After knock-down of Cad86C (GeneID 41302) #2, the record shows firefly Hh reporter signal, replicate 1 = 44169; firefly Hh reporter signal, replicate 2 = 93596; Renilla reference signal, replicate 1 = 1722; Renilla reference signal, replicate 2 = 2784; inactive.
Against CG13605 (GeneID 42858) the deposit lists firefly Hh reporter signal, replicate 1 = 99009; firefly Hh reporter signal, replicate 2 = 57137; Renilla reference signal, replicate 1 = 3964; Renilla reference signal, replicate 2 = 2269; inactive.
Depletion of CG12546 (GeneID 40483) resulted in: firefly Hh reporter signal, replicate 1 = 1.31e5; firefly Hh reporter signal, replicate 2 = 1.16e5; Renilla reference signal, replicate 1 = 4368; Renilla reference signal, replicate 2 = 2790; inactive.
After knock-down of Idua (GeneID 34544) the results were firefly Hh reporter signal, replicate 1 = 73794; firefly Hh reporter signal, replicate 2 = 43072; Renilla reference signal, replicate 1 = 3540; Renilla reference signal, replicate 2 = 1883; inactive.
CG15306 (GeneID 31961) #1 showed firefly Hh reporter signal, replicate 1 = 87617; firefly Hh reporter signal, replicate 2 = 1.76e5; Renilla reference signal, replicate 1 = 3257; Renilla reference signal, replicate 2 = 7680; inactive.
With knock-down of CG15306 (GeneID 31961) #2, the record shows firefly Hh reporter signal, replicate 1 = 1.49e5; firefly Hh reporter signal, replicate 2 = 7.57e5; firefly Hh reporter signal, replicate 3 = 3.73e5; Renilla reference signal, replicate 1 = 5193; Renilla reference signal, replicate 2 = 6320; inactive.

Taken from above:
Under “activity call”, stnB + stnA #3 has inactive
For “firefly Hh reporter signal, replicate 1”, CG8915 (GeneID 32715) is entered as 1.24e5
